{"source": "PubChem BioAssay AID1259308, NCATS – 2017", "assay": "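Genes whose loss raises luciferase production in HEK293 cells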 (primary screen)", "cells": "human HEK293 embryonic kidney cells stably expressing firefly luciferase (HEK-CMV-Luc2-Hygro)", "reagent": "single siRNA against human genes, 0.8 pmol siRNA per well", "timing": "72 h", "detection": "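Luciferase light (ONE-Glo) measured on one replicate plate set and viability (CellTiter-Glo) on the other, scaled to a negative control siRNA, with robust z-scores and luciferase per cell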", "direction": "total luciferase, z-score: higher = more reporter protein produced", "rule for the call": "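Active when the median/MAD z-score for overall luciferase is greater than 3; a gene was taken forward for validation with new siRNAs if at least two of its three siRNAs passed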", "meaning of the calls": "active = raised luciferase; inactive = no rise", "note": "The whole screen tested about 59,000 reagents; this is a part drawn at random. About 1,510 of all reagents (2.6%) were called active. 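Calls use total luciferase alone and ignore viability, so some active siRNAs may act by altering cell number.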 Unmarked entries are inactive. The numbers tell different reagents against one gene apart. Further read-outs or replicates are left out here."}
{"gene": "SOAT1 (GeneID 6646)", "reagent": 1, "total luciferase, z-score": 0.025}
{"gene": "SOAT1 (GeneID 6646)", "reagent": 2, "total luciferase, z-score": -0.0521}
{"gene": "SOAT1 (GeneID 6646)", "reagent": 3, "total luciferase, z-score": 0.148}
{"gene": "ZNF548 (GeneID 147694)", "reagent": 1, "total luciferase, z-score": 0.265}
{"gene": "ZNF548 (GeneID 147694)", "reagent": 2, "total luciferase, z-score": -0.84}
{"gene": "ZNF548 (GeneID 147694)", "reagent": 3, "total luciferase, z-score": -0.00885}
{"gene": "BTK (GeneID 695)", "reagent": 1, "total luciferase, z-score": 0.223}
{"gene": "BTK (GeneID 695)", "reagent": 2, "total luciferase, z-score": -0.354}
{"gene": "BTK (GeneID 695)", "reagent": 3, "total luciferase, z-score": -0.257}
{"gene": "PCDHGB7 (GeneID 56099)", "reagent": 1, "total luciferase, z-score": -0.156}
{"gene": "PCDHGB7 (GeneID 56099)", "reagent": 2, "total luciferase, z-score": -0.647}
{"gene": "PCDHGB7 (GeneID 56099)", "reagent": 3, "total luciferase, z-score": 0.346}
{"gene": "MAP3K10 (GeneID 4294)", "reagent": 1, "total luciferase, z-score": -2.35}
{"gene": "MAP3K10 (GeneID 4294)", "reagent": 2, "total luciferase, z-score": 0.723}
{"gene": "MAP3K10 (GeneID 4294)", "reagent": 3, "total luciferase, z-score": -1.32}
{"gene": "ALDH3B1 (GeneID 221)", "reagent": 1, "total luciferase, z-score": -1.46}
{"gene": "ALDH3B1 (GeneID 221)", "reagent": 2, "total luciferase, z-score": 0.947}
{"gene": "ALDH3B1 (GeneID 221)", "reagent": 3, "total luciferase, z-score": 1.88}
{"gene": "SEPTIN1 (GeneID 1731)", "reagent": 1, "total luciferase, z-score": 2.94}
{"gene": "SEPTIN1 (GeneID 1731)", "reagent": 2, "total luciferase, z-score": -1.79}
{"gene": "SEPTIN1 (GeneID 1731)", "reagent": 3, "total luciferase, z-score": 0.764}
{"gene": "SENP6 (GeneID 26054)", "reagent": 1, "total luciferase, z-score": -1.58}
{"gene": "SENP6 (GeneID 26054)", "reagent": 2, "total luciferase, z-score": -0.074}
{"gene": "SENP6 (GeneID 26054)", "reagent": 3, "total luciferase, z-score": -1.35}
{"gene": "LYG1 (GeneID 129530)", "reagent": 1, "total luciferase, z-score": -2.62}
{"gene": "LYG1 (GeneID 129530)", "reagent": 2, "total luciferase, z-score": 2.95}
{"gene": "LYG1 (GeneID 129530)", "reagent": 3, "total luciferase, z-score": 1.24}
{"gene": "LYVE1 (GeneID 10894)", "reagent": 1, "total luciferase, z-score": -0.857}
{"gene": "LYVE1 (GeneID 10894)", "reagent": 2, "total luciferase, z-score": -0.109}
{"gene": "LYVE1 (GeneID 10894)", "reagent": 3, "total luciferase, z-score": 1.05}
{"gene": "ARHGEF17 (GeneID 9828)", "reagent": 1, "total luciferase, z-score": 0.0933}
{"gene": "ARHGEF17 (GeneID 9828)", "reagent": 2, "total luciferase, z-score": -0.34}
{"gene": "ARHGEF17 (GeneID 9828)", "reagent": 3, "total luciferase, z-score": 0.799}
